Measured values from paper PMC6381605, “NR4A Nuclear Receptors Target Poly-ADP-Ribosylated DNA-PKcs Protein to Promote DNA Repair”.

Legend:
Assay in all cases: EMSA
[1] = target: NR4A2 CEAA C280A,E281A (UniProt Q06219); settings: EMSA: 1 ug protein, 10 mM Tris pH 8, 50 mM NaCl, 1 mM EDTA, 5% glycerol, 5 mM DTT, 20 ng/ul dIdC, 1.25 mg/ml BSA, 20 min room temperature; recombinant protein; label: 32P (alpha-32P-dCTP Klenow fill-in)
[2] = target: NR4A2 K303A (UniProt Q06219); settings: EMSA: 1 ug protein, 10 mM Tris pH 8, 50 mM NaCl, 1 mM EDTA, 5% glycerol, 5 mM DTT, 20 ng/ul dIdC, 1.25 mg/ml BSA, 20 min room temperature; recombinant protein; protein details: GST tag cleaved (PreScission); label: 32P (alpha-32P-dCTP Klenow fill-in)
[3] = target: NR4A2 WT (UniProt Q06219); settings: EMSA: 1 ug protein, 10 mM Tris pH 8, 50 mM NaCl, 1 mM EDTA, 5% glycerol, 5 mM DTT, 20 ng/ul dIdC, 1.25 mg/ml BSA, 20 min room temperature; recombinant protein; protein details: GST tag cleaved (PreScission); label: 32P (alpha-32P-dCTP Klenow fill-in)
[4] = target: NR4A2 C305A (UniProt Q06219); settings: EMSA: 1 ug protein, 10 mM Tris pH 8, 50 mM NaCl, 1 mM EDTA, 5% glycerol, 5 mM DTT, 20 ng/ul dIdC, 1.25 mg/ml BSA, 20 min room temperature; recombinant protein; label: 32P (alpha-32P-dCTP Klenow fill-in)
[5] = target: NR4A2 CC/AA (UniProt Q06219); settings: EMSA: 1 ug protein, 10 mM Tris pH 8, 50 mM NaCl, 1 mM EDTA, 5% glycerol, 5 mM DTT, 20 ng/ul dIdC, 1.25 mg/ml BSA, 20 min room temperature; recombinant protein; label: 32P (alpha-32P-dCTP Klenow fill-in)
[6] = target: NR4A2 KRRY K303A,R310T,R311Q,Y317A (UniProt Q06219); settings: EMSA: 1 ug protein, 10 mM Tris pH 8, 50 mM NaCl, 1 mM EDTA, 5% glycerol, 5 mM DTT, 20 ng/ul dIdC, 1.25 mg/ml BSA, 20 min room temperature; recombinant protein; protein details: GST tag cleaved (PreScission); label: 32P (alpha-32P-dCTP Klenow fill-in)
[7] = target: NR4A2 RR/TQ R310T,R311Q (UniProt Q06219); settings: EMSA: 1 ug protein, 10 mM Tris pH 8, 50 mM NaCl, 1 mM EDTA, 5% glycerol, 5 mM DTT, 20 ng/ul dIdC, 1.25 mg/ml BSA, 20 min room temperature; recombinant protein; protein details: GST tag cleaved (PreScission); label: 32P (alpha-32P-dCTP Klenow fill-in)
[8] = target: NR4A2 RR/AA R310A,R311A (UniProt Q06219); settings: EMSA: 1 ug protein, 10 mM Tris pH 8, 50 mM NaCl, 1 mM EDTA, 5% glycerol, 5 mM DTT, 20 ng/ul dIdC, 1.25 mg/ml BSA, 20 min room temperature; recombinant protein; protein details: GST tag cleaved (PreScission); label: 32P (alpha-32P-dCTP Klenow fill-in)

## GATCCTCGTGCGAAAAGGTCAAGCGCTA / GATCTAGCGCTTGACCTTTTCGCACGAG [NBRE]
[1]
  binding result: binds more weakly
[2]
  binding result: binds
[3]
  binding result: binds
[4]
  binding result: binds more weakly
[5]
  binding result: binds more weakly
[6]
  binding result: binds
[7]
  binding result: binds
[8]
  binding result: binds

For at least one entry, the source does not settle the construct or the ends of the probe. For some assays here: The comparison behind a weaker result is the experiment's own reference, which may not be listed here. For some assays here: At least one verdict rests on a figure or table, not on a statement of the authors.
